Laboratory results as given in US11135200B2, “Antimicrobial drug synthesis and therapeutic compositions” (priority 2014, dated 2021).
Some entries share one result that the patent states for a list of compounds. At least one compound was matched to its structure with a doubt left.

Assay: Pharmacokinetics after administration of rac-ornidazole in a formulation
Type: in vivo, human
Conditions: after oral administration

For `Cc1ncc([N+](=O)[O-])n1C[C@H](O)CCl` [(S)-ornidazole], the terminal elimination half-life was 14 to 18 h.
Compound `Cc1ncc([N+](=O)[O-])n1C[C@@H](O)CCl` [(R)-ornidazole] has a terminal elimination half-life of 14 to 18 h.
